Taken from: PubChem BioAssay AID1159578 (Peter MacCallum Cancer Centre, 2015)
Test: 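siRNA pools altering how lymphatic endothelial cells close a scratch wound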 (primary screen). Cells: human lymphatic endothelial cells. Reagents: siRNA pool against human genes, 40 nM. Duration: 48 h after transfection. Read-out: 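High-content imaging of dye-stained cells in a scratch assay measures filled wound area and nuclei per well; duplicate means given as ratio to mock and robust z-score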. Direction: migration robust z-score: higher = faster migration into the scratch; nuclei per well: higher = more cells in the well. Active means: 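Migration changed when robust z exceeds 2 or falls below -2 and mean nuclei number is at least 3300; otherwise not called changed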. Meaning of the calls: active = migration changed; inactive = no migration change, or too few cells.
The whole screen tested about 18,000 reagents; this is a part drawn at random. About 1,030 of them (5.7%) were called active. 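Inactive calls also include pools with fewer than 3300 nuclei, whose migration was not assessed.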 Raw values are not corrected between plates. Not all columns of the deposit are shown. No sequences are given here.

With TMPRSS11D (transmembrane serine protease 11D), what does the deposit list?
migration robust z-score: -0.49; migration class with cell-count check: migration z between -2 and 2; enough cells; nuclei per well, duplicate mean: 5334; Call: inactive

For SLC37A4, how do the results read?
migration robust z-score: 0.02; migration class with cell-count check: migration z between -2 and 2; enough cells; nuclei per well, duplicate mean: 6084; Call: inactive

With FAM219A (family with sequence similarity 219 member A), how do the results read?
migration robust z-score: 0.08; migration class with cell-count check: migration z between -2 and 2; enough cells; nuclei per well, duplicate mean: 5284; Call: inactive

With HTR3D (5-hydroxytryptamine receptor 3D), what does the deposit list?
migration robust z-score: -1.04; migration class with cell-count check: migration z between -2 and 2; enough cells; nuclei per well, duplicate mean: 5550; Call: inactive

For HARS1 (histidyl-tRNA synthetase 1), what does the deposit list?
migration robust z-score: -0.37; migration class with cell-count check: migration z between -2 and 2; enough cells; nuclei per well, duplicate mean: 6060; Call: inactive

What is on record for PRKCA (protein kinase C alpha)?
migration robust z-score: 0.13; migration class with cell-count check: migration z between -2 and 2; enough cells; nuclei per well, duplicate mean: 4596; Call: inactive

How did the screen score HDAC4 (histone deacetylase 4)?
migration robust z-score: 0.16; migration class with cell-count check: migration z between -2 and 2; enough cells; nuclei per well, duplicate mean: 4438; Call: inactive

For KLHDC7A (kelch domain containing 7A), what was measured?
migration robust z-score: 0.66; migration class with cell-count check: migration z between -2 and 2; enough cells; nuclei per well, duplicate mean: 6268; Call: inactive

For ATP11A (ATPase phospholipid transporting 11A), how do the results read?
migration robust z-score: 0.06; migration class with cell-count check: migration z between -2 and 2; enough cells; nuclei per well, duplicate mean: 6866; Call: inactive

How did the screen score OR5M8 (olfactory receptor family 5 subfamily M member 8)?
migration robust z-score: 0.95; migration class with cell-count check: migration z between -2 and 2; enough cells; nuclei per well, duplicate mean: 6354; Call: inactive

With NUP155 (nucleoporin 155), what does the deposit list?
migration robust z-score: 0.08; migration class with cell-count check: migration z between -2 and 2; enough cells; nuclei per well, duplicate mean: 5454; Call: inactive

With KRTAP19-4 (keratin associated protein 19-4), how do the results read?
migration robust z-score: -0.21; migration class with cell-count check: migration z between -2 and 2; enough cells; nuclei per well, duplicate mean: 5003; Call: inactive

Already shown: an excerpt of the list.
HDAC4 (histone deacetylase 4) | migration robust z-score: 0.16; migration class with cell-count check: migration z between -2 and 2; enough cells; nuclei per well, duplicate mean: 4438; Call: inactive
KLHDC7A (kelch domain containing 7A) | migration robust z-score: 0.66; migration class with cell-count check: migration z between -2 and 2; enough cells; nuclei per well, duplicate mean: 6268; Call: inactive
